# What was measured:
# [1] = target: NMDA receptor-ionophore complex (site labeled by [3H]MK-801); test: Inhibition of [3H]MK-801 binding in rat cortical/hippocampal washed membrane preparations; settings: read-out: IC50 (μM) vs. [3H]MK-801; rat cortical/hippocampal washed membranes
# NMDA receptor = test: Inhibition of NMDA/glycine-induced increases in intracellular calcium in cultured rat cerebellar granule cells (RCGC); format: cell-based; settings: read-out: IC50 (μM) vs. NMDA
SMILES,IC50 [1],IC50 (NMDA receptor)
"CN(C)CCCN1c2ccccc2CCc2ccc(Cl)cc21 [Clomipramine, reference compound]",10 µM,
"CN(C)CC/C=C1\c2ccccc2COc2ccccc21 [Doxepin, reference compound]",30.4 µM,
"CNCCCC12CCC(c3ccccc31)c1ccccc12 [Maprotiline, reference compound]",,5.8 µM
"CN(C)CCOC(c1ccccc1)c1ccccc1 [diphenhydramine, reference compound]",,26 µM
"CNCCC(Oc1ccc(C(F)(F)F)cc1)c1ccccc1 (centres unmarked) [fluoxetine, reference compound]",,3.4 µM
